Results are given in words; binding and its absence hold for the method and conditions named. For part of these data: Binding calls can cover weak binding; strength is not graded here. Tags and fused reporters may be left off the sequences shown.
T1: GSTEhRab21 (E. histolytica) (UniProt Q9BLF0)
T1 sequence: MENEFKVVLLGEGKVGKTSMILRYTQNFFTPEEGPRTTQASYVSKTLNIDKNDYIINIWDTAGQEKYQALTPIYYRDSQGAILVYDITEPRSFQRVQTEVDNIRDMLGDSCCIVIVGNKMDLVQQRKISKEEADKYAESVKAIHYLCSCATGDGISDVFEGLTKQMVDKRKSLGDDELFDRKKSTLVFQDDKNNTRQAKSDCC

Sequences of proteins named here, by UniProt entry; tags and fusion partners are left off. A change or cut given only in a name is not applied to a line headed by its entry.
UniProt C4M344: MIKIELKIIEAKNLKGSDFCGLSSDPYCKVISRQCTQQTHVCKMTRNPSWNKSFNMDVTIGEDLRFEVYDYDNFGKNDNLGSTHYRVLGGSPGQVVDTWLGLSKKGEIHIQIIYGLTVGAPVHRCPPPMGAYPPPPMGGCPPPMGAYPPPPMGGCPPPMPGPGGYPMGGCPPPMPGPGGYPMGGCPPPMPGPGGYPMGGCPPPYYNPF

B1: GSTEhRab21 (enzyme)
chain: T1 sequence
notes: also called GppNHp-GSTEhRab21; GDP-GSTEhRab21; source: recombinant, purified

Tests used:
[1] = molecular target: T1, GSTEhRab21 (E. histolytica); test: pull-down; both purified
[2] = molecular target: MBPEhC2BHis (E. histolytica) (UniProt C4M344); test: condition: only EhRab21 loaded with GDP (76 μM into 10 μM); ITC; both purified

| Molecule | binding [1] | binding [2] |
| --- | --- | --- |
| EhC2A (C2 domain) (E. histolytica) (domain or fragment) | no binding | – |
| MBPEhC2BHis (from UniProt C4M344) | binds | – |
| B1 | – | no binding |

Source: paper PMC7197785 (PLoS Pathogens, 2020)
